One substance from patent US20030166873A1 can be followed below.

Sequences of proteins named here, by UniProt entry; tags and fusion partners are left off. Residues count along the entry.
UniProt P17948, residues 27-758: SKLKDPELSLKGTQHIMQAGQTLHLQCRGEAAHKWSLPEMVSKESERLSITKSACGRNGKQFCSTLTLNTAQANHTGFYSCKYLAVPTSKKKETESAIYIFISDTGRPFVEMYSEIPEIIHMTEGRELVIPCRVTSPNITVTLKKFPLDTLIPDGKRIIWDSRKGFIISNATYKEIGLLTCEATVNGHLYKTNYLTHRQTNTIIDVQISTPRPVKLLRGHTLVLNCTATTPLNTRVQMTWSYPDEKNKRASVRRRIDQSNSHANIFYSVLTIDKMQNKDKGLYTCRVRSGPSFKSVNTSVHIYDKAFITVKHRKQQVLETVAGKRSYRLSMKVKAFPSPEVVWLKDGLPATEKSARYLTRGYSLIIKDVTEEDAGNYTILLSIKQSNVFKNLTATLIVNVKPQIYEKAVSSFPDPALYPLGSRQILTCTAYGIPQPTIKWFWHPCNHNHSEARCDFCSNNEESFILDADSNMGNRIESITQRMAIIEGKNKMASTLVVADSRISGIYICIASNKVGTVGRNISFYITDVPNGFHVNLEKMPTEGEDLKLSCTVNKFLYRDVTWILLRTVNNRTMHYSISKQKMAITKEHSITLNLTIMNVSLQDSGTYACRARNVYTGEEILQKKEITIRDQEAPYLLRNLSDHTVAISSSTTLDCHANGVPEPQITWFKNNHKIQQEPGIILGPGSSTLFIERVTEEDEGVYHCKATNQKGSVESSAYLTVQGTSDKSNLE

For this assay, the target named is T1, PlGF152 (expression plasmid of Park et al.) (UniProt P49763).
T1 sequence (35S-labeled amino acids, looked up): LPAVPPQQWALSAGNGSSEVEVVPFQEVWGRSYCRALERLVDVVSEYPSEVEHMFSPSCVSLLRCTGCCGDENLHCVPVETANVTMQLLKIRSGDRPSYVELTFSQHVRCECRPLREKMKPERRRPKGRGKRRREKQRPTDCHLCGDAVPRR
The assay is described as follows: receptor IgG / protein A precipitation of 35S-labeled COS7 conditioned medium.

No constants are given. Whether binding was seen depends on the method and setting. Some entries that bind do so weakly or less than the wild type.

As to “Flt1/IgG (from UniProt P17948 27-758) (Fc fusion)”, the binding entry is “binds”.
